According to PubChem BioAssay AID270 (DTP/NCI, 2004):
The list does not hold the whole screen: it is rich in T/C values a quarter to a half above the control, in often repeated tests (any T/C) and in doses without a T/C. Further doses and runs are listed elsewhere. T/C: endpoint of the treated group in % of that of the vehicle group. Schedules are NCI's codes, read here as Q, the interval in days (D) or hours (H), X, the number of doses. Some entries give survivors of the animals treated and no T/C: the source holds a T/C of zero for them, seemingly a mark for toxic or unscored doses. Some survivor counts are full or nearly so, which does not show that the dose was tolerated: the source hardly ever lists a survival T/C far under the control, and the zero likely stands for such cases as well. Survivors were counted at the toxicity check, usually on the fifth day, unless a day is given; later deaths do not show. Some structures stand for samples that the source files as different forms (salt, stereo form or complex); doses refer to the form tested. Some doses were run more than once; the values are given in rising order. For survival time, the PubChem record calls one and a half times the control and up active, and a quarter to a half above the control has no call in these data; cut-offs in other NCI protocols can differ.

Tested on: BDF1 mice, s.c. Lewis lung carcinoma, T/C %
Assay: NCI In Vivo Anticancer Drug Screen. Data for tumor model Lewis Lung Carcinoma (subcutaneous) in B6D2F1 (BDF1) mice
Method in brief: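 Antitumor effect in vivo is scored from survival or tumor burden, reported as treated relative to vehicle controls.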

[1] = T/C endpoint: median survival time, dose: 25.0 mg/kg/injection, schedule: Q01DX009 (ip), vehicle: Klucel (hydroxypropylcellulose) (HPC), higher T/C = longer survival
[2] = T/C endpoint: median survival time, dose: 50.0 mg/kg/injection, schedule: Q01DX009 (ip), vehicle: Klucel (hydroxypropylcellulose) (HPC), higher T/C = longer survival
[3] = T/C endpoint: median survival time, dose: 50.0 mg/kg/injection, schedule: Q01DX009 (ip), vehicle: saline, higher T/C = longer survival
[4] = T/C endpoint: median survival time, dose: 400.0 mg/kg/injection, schedule: Q01DX009 (ip), vehicle: saline with Tween-80, higher T/C = longer survival
[5] = T/C endpoint: mean tumor weight, dose: 80.0 mg/kg/injection, schedule: Q01DX011 (ip), vehicle: carboxymethylcellulose (CMC), higher T/C = larger tumour
[6] = T/C endpoint: median survival time, dose: 8.0 mg/kg/injection, schedule: Q01DX009 (ip), vehicle: saline, higher T/C = longer survival

COc1cc(NS(C)(=O)=O)ccc1Nc1c2ccccc2nc2ccccc12
T/C (T/C endpoint: median survival time, dose: 0.25 mg/kg/injection, schedule: Q01DX009 (ip), vehicle: other, higher T/C = longer survival): 149 % of control
T/C (T/C endpoint: median survival time, dose: 1.0 mg/kg/injection, schedule: Q01DX009 (ip), vehicle: other, higher T/C = longer survival): 139 % of control
T/C (T/C endpoint: median survival time, dose: 2.0 mg/kg/injection, schedule: Q01DX009 (ip), vehicle: other, higher T/C = longer survival): 127 % of control
survivor count (T/C endpoint: median survival time, dose: 4.0 mg/kg/injection, schedule: Q01DX009 (ip), vehicle: other, higher T/C = longer survival): 10 of 10
survivor count (T/C endpoint: median survival time, dose: 5.0 mg/kg/injection, schedule: Q01DX011 (ip), vehicle: Klucel (hydroxypropylcellulose) (HPC), higher T/C = longer survival): 10 of 10
survivor count (T/C endpoint: median survival time, dose: 6.25 mg/kg/injection, schedule: Q01DX009 (ip), vehicle: saline, higher T/C = longer survival): 10 of 10
survivor count (T/C endpoint: median survival time, dose: 10.0 mg/kg/injection, schedule: Q01DX011 (ip), vehicle: Klucel (hydroxypropylcellulose) (HPC), higher T/C = longer survival): 10 of 10
survivor count (T/C endpoint: median survival time, dose: 12.5 mg/kg/injection, schedule: Q01DX009 (ip), vehicle: saline, higher T/C = longer survival): 10 of 10
survivor count (T/C endpoint: median survival time, dose: 12.5 mg/kg/injection, schedule: Q01DX011 (ip), vehicle: Klucel (hydroxypropylcellulose) (HPC), higher T/C = longer survival): 10 of 10
survivor count [1]: 9 of 10
survivor count (T/C endpoint: median survival time, dose: 25.0 mg/kg/injection, schedule: Q01DX009 (ip), vehicle: saline, higher T/C = longer survival): 10 of 10
survivor count (T/C endpoint: median survival time, dose: 25.0 mg/kg/injection, schedule: Q01DX011 (ip), vehicle: Klucel (hydroxypropylcellulose) (HPC), higher T/C = longer survival): 10 of 10
survivor count [2]: 9 of 10
survivor count [3]: 7 of 10
survivor count (T/C endpoint: median survival time, dose: 50.0 mg/kg/injection, schedule: Q01DX011 (ip), vehicle: Klucel (hydroxypropylcellulose) (HPC), higher T/C = longer survival): 8 of 10
survivor count (T/C endpoint: median survival time, dose: 100.0 mg/kg/injection, schedule: Q01DX011 (ip), vehicle: Klucel (hydroxypropylcellulose) (HPC), higher T/C = longer survival): 1 of 10

COc1ccc(/C=C/c2ccc3ccccc3[n+]2C)c(OC)c1OC
survivor count (T/C endpoint: median survival time, dose: 5.0 mg/kg/injection, schedule: Q01DX009 (ip), vehicle: Klucel (hydroxypropylcellulose) (HPC), higher T/C = longer survival): 10 of 10
survivor count (T/C endpoint: median survival time, dose: 10.0 mg/kg/injection, schedule: Q01DX009 (ip), vehicle: Klucel (hydroxypropylcellulose) (HPC), higher T/C = longer survival): 8 of 10
survivor count (T/C endpoint: median survival time, dose: 20.0 mg/kg/injection, schedule: Q01DX009 (ip), vehicle: Klucel (hydroxypropylcellulose) (HPC), higher T/C = longer survival): 6 of 10
survivor count (T/C endpoint: median survival time, dose: 40.0 mg/kg/injection, schedule: Q01DX009 (ip), vehicle: Klucel (hydroxypropylcellulose) (HPC), higher T/C = longer survival): 0 of 10

COc1cc(NC(=O)CN(CCCl)CCCl)cc(OC)c1OC
survivor count [4]: 9 of 10

NC(=S)N/N=C\c1ncnc2ccccc12
survivor count (T/C endpoint: median survival time, dose: 12.5 mg/kg/injection, schedule: Q01DX009 (ip), vehicle: Klucel (hydroxypropylcellulose) (HPC), higher T/C = longer survival): 10 of 10
survivor count [1]: 10 of 10
survivor count [2]: 10 of 10

CC(CN1CC(=O)NC(=O)C1)N1CC(=O)NC(=O)C1 (centres undefined)
survivor count (T/C endpoint: median survival time, dose: 120.0 mg/kg/injection, schedule: Q01DX009 (ip), vehicle: Klucel (hydroxypropylcellulose) (HPC), higher T/C = longer survival): 8 of 10
survivor count (T/C endpoint: median survival time, dose: 240.0 mg/kg/injection, schedule: Q01DX009 (ip), vehicle: Klucel (hydroxypropylcellulose) (HPC), higher T/C = longer survival): 10 of 10
survivor count (T/C endpoint: median tumor weight (est.), dose: 10.0 mg/kg/injection, schedule: Q03HX032 (ip), vehicle: saline, higher T/C = larger tumour): 5 of 10 on day 16
survivor count (T/C endpoint: median tumor weight (est.), dose: 11.0 mg/kg/injection, schedule: Q03HX032 (ip), vehicle: saline, higher T/C = larger tumour): 3 of 10 on day 19
survivor count (T/C endpoint: median tumor weight (est.), dose: 15.0 mg/kg/injection, schedule: Q03HX032 (ip), vehicle: saline, higher T/C = larger tumour): 2 of 10 on day 16
survivor count (T/C endpoint: median tumor weight (est.), dose: 17.0 mg/kg/injection, schedule: Q03HX032 (ip), vehicle: saline, higher T/C = larger tumour): 2 of 10 on day 19 and 5 of 10 on day 15
survivor count (T/C endpoint: median tumor weight (est.), dose: 18.75 mg/kg/injection, schedule: Q03HX032 (ip), vehicle: saline, higher T/C = larger tumour): 2 of 9 on day 16
survivor count (T/C endpoint: median tumor weight (est.), dose: 25.0 mg/kg/injection, schedule: Q03HX032 (ip), vehicle: saline, higher T/C = larger tumour): 3 of 10 on day 19 and 4 of 10 on day 15
survivor count (T/C endpoint: median tumor weight (est.), dose: 30.0 mg/kg/injection, schedule: Q01DX011 (ip), vehicle: saline, higher T/C = larger tumour): 5 of 10 on day 15

C=C1C(=O)OC2CC(C)C3(O)CCC(C)(CC(OC(=O)C(C)C)C12)O3 (centres undefined)
survivor count (T/C endpoint: median survival time, dose: 200.0 mg/kg/injection, schedule: Q01DX009 (ip), vehicle: Klucel (hydroxypropylcellulose) (HPC), higher T/C = longer survival): 9 of 10

Cc1ccccn1
survivor count (T/C endpoint: mean tumor weight, dose: 500.0 mg/kg/injection, schedule: Q01DX011 (ip), vehicle: carboxymethylcellulose (CMC), higher T/C = larger tumour): 0 of 6

CC1CN1P(=O)(N1CC1C)N1CC1C (centres undefined)
survivor count [3]: 9 of 10

O=P(Oc1ccccc1)(Oc1ccccc1)c1ccccc1
survivor count (T/C endpoint: mean tumor weight, dose: 300.0 mg/kg/injection, schedule: Q01DX011 (ip), vehicle: other, higher T/C = larger tumour): 0 of 6
survivor count (T/C endpoint: mean tumor weight, dose: 450.0 mg/kg/injection, schedule: Q01DX011 (ip), vehicle: other, higher T/C = larger tumour): 0 of 6

CS(=O)(=O)OCC(O)C(O)COS(C)(=O)=O (centres undefined)
T/C (T/C endpoint: mean tumor weight, dose: 62.5 mg/kg/injection, schedule: Q01DX011 (ip), vehicle: saline, evaluated on day 12, higher T/C = larger tumour): 144 % of control

CC1CN1P(=S)(N1CC1C)N1CC1C (centres undefined)
survivor count [5]: 0 of 6
survivor count (T/C endpoint: mean tumor weight, dose: 120.0 mg/kg/injection, schedule: Q01DX011 (ip), vehicle: carboxymethylcellulose (CMC), higher T/C = larger tumour): 0 of 6
survivor count (T/C endpoint: mean tumor weight, dose: 178.0 mg/kg/injection, schedule: Q01DX011 (ip), vehicle: carboxymethylcellulose (CMC), higher T/C = larger tumour): 0 of 6
survivor count (T/C endpoint: mean tumor weight, dose: 267.0 mg/kg/injection, schedule: Q01DX011 (ip), vehicle: carboxymethylcellulose (CMC), higher T/C = larger tumour): 0 of 6
survivor count (T/C endpoint: mean tumor weight, dose: 400.0 mg/kg/injection, schedule: Q01DX011 (ip), vehicle: carboxymethylcellulose (CMC), higher T/C = larger tumour): 0 of 6
survivor count (T/C endpoint: mean tumor weight, dose: 600.0 mg/kg/injection, schedule: Q01DX011 (ip), vehicle: carboxymethylcellulose (CMC), higher T/C = larger tumour): 0 of 6

O=C(N/N=C/c1ccc(O)cc1O)c1cccnc1
survivor count (T/C endpoint: median survival time, dose: 12.5 mg/kg/injection, schedule: Q01DX009 (ip), vehicle: olive oil, sesame oil, peanut oil, higher T/C = longer survival): 10 of 10
survivor count (T/C endpoint: median survival time, dose: 50.0 mg/kg/injection, schedule: Q01DX009 (ip), vehicle: olive oil, sesame oil, peanut oil, higher T/C = longer survival): 10 of 10
survivor count (T/C endpoint: median survival time, dose: 100.0 mg/kg/injection, schedule: Q01DX009 (ip), vehicle: olive oil, sesame oil, peanut oil, higher T/C = longer survival): 9 of 10
survivor count (T/C endpoint: median survival time, dose: 200.0 mg/kg/injection, schedule: Q01DX009 (ip), vehicle: olive oil, sesame oil, peanut oil, higher T/C = longer survival): 0 of 10

Nc1cc2nc3ccccc3sc-2cc1=O
survivor count (T/C endpoint: median survival time, dose: 200.0 mg/kg/injection, schedule: Q01DX009 (ip), vehicle: saline with Tween-80, higher T/C = longer survival): 10 of 10
survivor count [4]: 0 of 10

Cc1cn(C2OC(CO)C(O)C2O)c(=O)[nH]c1=O (centres undefined)
T/C (T/C endpoint: mean tumor weight, dose: 125.0 mg/kg/injection, schedule: Q01DX011 (ip), vehicle: saline, evaluated on day 12, higher T/C = larger tumour): 136 % of control
T/C (T/C endpoint: mean tumor weight, dose: 250.0 mg/kg/injection, schedule: Q01DX011 (ip), vehicle: saline, evaluated on day 12, higher T/C = larger tumour): 130 % of control

COc1cc(-c2ccc(Nc3ccccc3C(=O)O)c(OC)c2)ccc1N
survivor count [5]: 0 of 6

Nc1nc(N)c(N=O)c(Nc2ccc(Br)cc2)n1
survivor count (T/C endpoint: mean tumor weight, dose: 480.0 mg/kg/injection, schedule: Q01DX011 (ip), vehicle: other, higher T/C = larger tumour): 2 of 6

COc1ccc(C[C@H](N)C(=O)NC2C(CO)OC(n3cnc4c(N(C)C)ncnc43)C2O)cc1 (some centres undefined)
survivor count [6]: 10 of 10
survivor count (T/C endpoint: median survival time, dose: 16.0 mg/kg/injection, schedule: Q01DX009 (ip), vehicle: saline, higher T/C = longer survival): 10 of 10
survivor count (T/C endpoint: median survival time, dose: 256.0 mg/kg/injection, schedule: Q01DX009 (ip), vehicle: saline, higher T/C = longer survival): 0 of 10

CCCCCCCCCCCC[N+](C)(C)Cc1ccccc1
survivor count (T/C endpoint: median survival time, dose: 0.5 mg/kg/injection, schedule: Q01DX009 (ip), vehicle: saline, higher T/C = longer survival): 10 of 10
survivor count [6]: 5 of 10
survivor count (T/C endpoint: median survival time, dose: 500.0 micrograms/kg/injection, schedule: Q01DX009 (ip), vehicle: saline, higher T/C = longer survival): 10 of 10

CN(C)c1ccc(C(N)=O)cn1
survivor count (T/C endpoint: mean tumor weight, dose: 12.0 mg/kg/injection, schedule: Q01DX011 (ip), vehicle: saline, higher T/C = larger tumour): 2 of 6

CCCCCCCCCCCC(c1ccccc1)[N+](C)(C)C (centres undefined)
survivor count (T/C endpoint: median survival time, dose: 4.0 mg/kg/injection, schedule: Q01DX009 (ip), vehicle: saline, higher T/C = longer survival): 10 of 10
survivor count [6]: 6 of 10
